Results on 53 molecules are retold here after PubChem BioAssay AID504466 (National Center for Advancing Translational Sciences (NCATS), 2011).

Molecules are shown by their SMILES. Out of some 330,000 compounds screened, about 4,200 (1.3%) were called active. Not shown: some 6% with an inconclusive outcome. Calls follow the shape of the dose curve; as a rule, active = well fitted activation curve with a large enough effect; inconclusive = small, poorly fitted or top-dose-only effect; inactive = no such curve, though single readings can be large or run the other way. The list shows a part of the results, in another mix than the full data. The source gives no active or inactive call for entries shown without one.
Potency is read from the fitted curve at half-maximal effect.

This experiment in a line: qHTS screen for small molecules that induce genotoxicity in human embryonic kidney (HEK293T) cells expressing luciferase-tagged ELG1. Also: nearly all actives have a fitted effect of over 60% in size. As to activity change, positive = activation: % of control where 0% means no effect. The note with it: HEK293T ELG1-luciferase reporter, luminescence, 16 h; activity change, positive = activation: at 46 µM (top of the series). The text has this: NIH Molecular Libraries Probe Production Network [MLPCN] NIH Chemical Genomics Center [NCGC] MLPCN Grant: 1 R03 MH092164-01 Assay Provider: Kyungjae Myung, NHGRI, NIH Keywords: MLPCN, qHTS, NCGC, genotoxicity, cancer Assay Overview: Cancer cells divide rapidly compared to normal cells in the body. During cell division, cancer cells need to duplicate their genome by DNA replication. The failure of genome duplication leads to cancer cells' death. Therefore, inhibitors of DNA replication could specifically kill cancer cells. Based on this concept, many chemotherapeutic agents were developed and have been used to treat cancer patients. However, there are a limited number of agents available in the clinical setting, and some of those that do exist have low efficacy and severe side effects. Therefore, if we can find the compounds that effectively block DNA replication either by directly damaging DNA or by inhibiting other cellular mechanisms, the options for cancer treatment will be broadened. With this in mind, we developed a quantitative high-throughput ELG1-luciferase reporter gene assay. Since the level of human ELG1 protein is enhanced in response to genetic stresses, increases in luciferase activity can be used to identify compounds that cause genetic stress.
Assay Protocol Summary: For genotoxicity screening, 2,000 cells in 5 uL/well were dispensed into white, solid-bottom 1536-well plates using a solenoid-based dispenser. Following transfer of 23 nL compound or DMSO vehicle by a pin tool, the plates were incubated 16 hr at 37 °C and 5% CO2. 5 ul ONE-Glo (Promega) was then added to each plate and following a 30 min incubation at room temperature, luciferase activity was quantified on a ViewLux CCD-based plate reader.
Turning to `COc1ccc(C(c2nnnn2CCc2ccccc2)N2CCN(C3CCCC3)CC2)cc1` (stereo not drawn), the activity change, positive = activation is 7.76%.
As for `c1ccc(-c2csc3ncnc(NCCN4CCOCC4)c23)cc1`, the “activity change, positive = activation” value was inactive: -23%.
As for `CCOc1ccccc1N1CCN(c2ncnc3scc(-c4ccc(OC)cc4)c23)CC1`, the “activity change, positive = activation” value is inactive: -33.6%.
For the molecule `Cc1c(C(=O)N2CCOCC2)oc2ccc(S(=O)(=O)N3CCCC3)cc12`, the activity change, positive = activation amounted to 15.4%.
`c1ccc(-c2noc(-c3ccc4c(c3)OCO4)n2)cc1`: the Potency was active: 0.411 µM.
Regarding `c1ccc(SCc2nc(-c3cccnc3)no2)cc1`, the Potency is active: 3.66 µM.
For `O=c1c(/C=N/O)coc2ccc3ccccc3c12`, the activity change, positive = activation was determined as 45.6%.
`O=C1COc2ccc(C(=O)COC(=O)c3ccc(Cl)cc3[N+](=O)[O-])cc2N1`: the activity change, positive = activation was 26.5%.
Turning to `COc1ccc(/C=C2/CCc3ccccc3C2=O)cc1CN1CCOCC1`, the “activity change, positive = activation” value was inactive: 17.6%.
Same read-out and setting: the value for `C=C(C)CN1CCN(c2ccc(N3C(=O)CCCC3=O)cc2[N+](=O)[O-])CC1` was 38.3%.
In the case of `COc1ccc(C(=O)/C=C/Nc2ccccn2)cc1`, the activity change, positive = activation was -1.89%.
Turning to `COc1ccccc1-n1c(SCC(=O)Nc2cccc(C)c2)nc2c(c1=O)SCC2`, the activity change, positive = activation is -0.214%.
Take `O=C(Nc1ccccc1)c1ccc(-c2ccccc2)s1`: the Potency is active: 5.17 µM.
For `c1ccc2nc(-c3ccc4c(c3)OCO4)ccc2c1`, the Potency is active: 2.59 µM.
For `CC(C)C[C@H](NC(=O)Nc1ccc2c(c1)OCCO2)C(=O)O`, the “activity change, positive = activation” value is inactive: -21.1%.
For the molecule `C=CCOc1ccc(CN(C)C(=O)CNC(=O)c2ccc(-c3ccccc3)cc2)cc1`, the “activity change, positive = activation” value is inactive: -31.7%.
Regarding `Cc1ccc(CNc2ncccc2-c2nc3cc(Cl)ccc3o2)cc1`, the activity change, positive = activation is 22.9%.
On to `CC1=C(C(=O)OCc2ccc3c(c2)OCO3)C(c2ccccc2)NC(=O)N1` (stereo not drawn), for which the “activity change, positive = activation” value was inactive: -23.2%.
On the same count and under the same terms, then `Cc1ccc(Cl)cc1NC(=O)C1CCCN(S(=O)(=O)c2c(C)noc2C)C1` (stereo not drawn), with 4.99%; and `CCCCC(=O)Nc1cccc(NC(=S)NC(=O)Cc2ccccc2)c1`, with 6.83%; and `O=C(NC(=S)Nc1nc2c(s1)CSc1ccccc1-2)c1ccccc1`, with 0.661%.
Still for that read-out and setting: then `COc1ccc([C@@H](C)NC(=O)CCc2nnc(-c3cc(C)on3)o2)cc1`, with 10.4%.
Turning to `COc1cccc(N/C=C/C(=O)c2ccc(C)cc2)c1`, the Potency is active: 1.46 µM.
Turning to `Fc1ccc(SCCc2ccccn2)cc1`, the “activity change, positive = activation” value is inactive: 14.4%.
Turning to `COc1ccc(C(=O)N(Cc2ccccc2)c2ccc(C)cc2)cc1S(=O)(=O)N1CCOCC1`, the activity change, positive = activation was 69.3%.
For the molecule `CC(C)(C)NC(=O)C(c1ccncc1)N(Cc1ccc(F)cc1)C(=O)c1ccc(-c2ccccc2)[nH]1` (stereo not drawn), the activity change, positive = activation was -10%.
Regarding `C1=C(CCNC2=NCCCCC2)CCCC1`, the “activity change, positive = activation” value is inactive: -24.7%.
As for `COc1cc(NC(=O)C(C)Oc2ccccc2)c(OC)cc1NC(=O)c1ccccc1` (stereo not drawn), the “activity change, positive = activation” value was inactive: -27.1%.
With `CCOc1cc(S(=O)(=O)NC2CCCCCC2)ccc1F`, the activity change, positive = activation worked out at 73.4%.
Same read-out and setting: the value for `Cc1ccc(C(=O)Nc2ncccc2O)o1` was 86.4%; that for `Cc1ccc(S(=O)(=O)CNC(=O)c2ccccc2)cc1` was 50.8%.
In the case of `O=C(Oc1ccc(-c2cn3c(n2)SCC3)cc1)c1ccccc1`, the Potency is active: 18.4 µM.
In the case of `O=C(O)c1cccc(COc2ccccc2Cl)c1`, the activity change, positive = activation is -50.7%.
`NC(=O)NCc1ccc(Cl)cc1`: the activity change, positive = activation turned out to be 4.1%.
Still for that read-out and setting: the value for `Cc1cc2cc(CCNC(=O)c3c(-c4ccccc4Cl)noc3C)c(=O)[nH]c2cc1C` was inactive: -22.8%.
Still for that read-out and setting: then `COc1ccc(CNC(=O)CCCn2nc(C)c([N+](=O)[O-])c2C)cc1OC`, with 12.9%; and `Cc1noc(/C=C/c2ccccn2)c1[N+](=O)[O-]`, with inactive: -32.4%.
On to `O=C(NCCc1c[nH]c2ccccc12)c1cnc2sccn2c1=O`, for which the Potency was active: 8.2 µM.
In the case of `CCn1c(SCC(=O)NCc2ccco2)nnc1-c1ccc(N)cc1`, the activity change, positive = activation is 36.2%.
Consider `c1ccc2nc(-c3nc4ccccc4[nH]3)ccc2c1`, for which the activity change, positive = activation amounted to 33.6%.
Turning to `COc1ccc(Cn2c(C3CC3)nc3ccc(NC(=O)C4CC4)cc3c2=O)cc1`, the Potency was active: 2.59 µM.
With `C[N+](C)(CCCCCC[N+](C)(C)CCCN1C(=O)c2cccc3cccc(c23)C1=O)CCCN1C(=O)c2cccc3cccc(c23)C1=O`, the activity change, positive = activation came to 37.9%.
On the same count and under the same terms, then `NNC(=O)c1ccc(COc2cccc3cccnc23)cc1`, with 1.22%.
`S=C(NCCc1c[nH]c2ccccc12)NC1CC1`: the activity change, positive = activation was 4.86%.
Consider `O=C(O)c1cc(O)c2c(c1)[C@@H]([C@H]1c3cc(C(=O)O)cc(O)c3C(=O)c3c(O[C@@H]4O[C@H](CO)[C@@H](O)[C@H](O)[C@H]4O)cccc31)c1cccc(OC3O[C@H](CO)[C@@H](O)[C@H](O)[C@H]3O)c1C2=O` (stereo partly drawn), for which the activity change, positive = activation is -7.59%.
As for `O=C(CC1Nc2ccccc2NC1=O)c1ccccc1` (stereo not drawn), the Potency was active: 9.2 µM.
Take `O=C(Nc1nc2ccccc2[nH]1)c1cc2ccccc2o1`: the Potency is active: 2.31 µM.
On the same count and under the same terms, then `Cc1ccsc1/C=N/Nc1nc2ccccc2s1`, with active: 1.46 µM.
For the molecule `Cc1nn(-c2c(Cl)cc(Cl)cc2Cl)c(=O)c2ccccc12`, the activity change, positive = activation is -2.16%.
Turning to `COc1ccc(Cc2nnc(-c3ccccc3)o2)cc1`, the activity change, positive = activation worked out at 67.7%.
On to `CC1=C/C(=C(/c2cc(C)c(O)c(Br)c2)c2ccccc2S(=O)(=O)O)C=C(Br)C1=O`, for which the “activity change, positive = activation” value was inactive: -11.5%.
Regarding `O=[N+]([O-])c1cc([N+](=O)[O-])c(Oc2cccnc2Br)cc1NN1CCCCC1`, the activity change, positive = activation turned out to be 19.3%.
Still for that read-out and setting: the value for `Cc1ccccc1N1C(=O)CC(N(O)c2ccccc2)C1=O` (stereo not drawn) was 65.7%.
